Assay results taken from paper PMC2423482, “UDP-N-Acetylglucosamine 2-Epimerase/N-Acetylmannosamine Kinase (GNE) Binds to Alpha-Actinin 1: Novel Pathways in Skeletal Muscle?” (PLoS ONE, 2008).
No constants are given. Whether binding was seen depends on the method and setting. Where a sequence is shown, tags or fusion partners need not be part of it.

Amino acid sequences for entries named in this document (tags omitted). Residues count along the entry.
UniProt P02769, residues 25-607: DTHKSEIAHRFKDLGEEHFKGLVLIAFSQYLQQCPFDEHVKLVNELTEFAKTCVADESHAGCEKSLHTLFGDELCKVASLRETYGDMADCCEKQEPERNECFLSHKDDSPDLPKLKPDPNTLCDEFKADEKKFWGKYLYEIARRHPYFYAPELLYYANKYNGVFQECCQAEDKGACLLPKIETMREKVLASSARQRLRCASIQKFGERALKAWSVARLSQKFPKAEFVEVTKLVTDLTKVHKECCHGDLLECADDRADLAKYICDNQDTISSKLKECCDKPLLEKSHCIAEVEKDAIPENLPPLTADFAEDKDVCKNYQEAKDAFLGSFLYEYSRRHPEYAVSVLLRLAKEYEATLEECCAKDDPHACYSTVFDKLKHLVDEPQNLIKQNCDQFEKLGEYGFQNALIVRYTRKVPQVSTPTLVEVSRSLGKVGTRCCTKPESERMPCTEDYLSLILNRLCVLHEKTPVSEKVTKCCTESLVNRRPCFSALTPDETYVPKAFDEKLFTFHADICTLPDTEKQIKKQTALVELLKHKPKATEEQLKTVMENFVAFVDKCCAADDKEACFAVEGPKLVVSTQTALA
UniProt P00337: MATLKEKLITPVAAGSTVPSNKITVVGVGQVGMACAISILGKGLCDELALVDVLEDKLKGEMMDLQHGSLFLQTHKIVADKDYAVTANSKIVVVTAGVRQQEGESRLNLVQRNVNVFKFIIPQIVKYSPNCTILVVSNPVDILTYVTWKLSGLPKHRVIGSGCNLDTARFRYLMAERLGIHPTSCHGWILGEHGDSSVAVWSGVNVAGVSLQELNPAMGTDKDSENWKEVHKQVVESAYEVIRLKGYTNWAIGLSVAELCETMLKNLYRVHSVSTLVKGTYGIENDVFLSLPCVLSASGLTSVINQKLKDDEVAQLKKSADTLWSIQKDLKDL

What was measured:
[1] = target: T1, His-tagged wild type UDP-N-acetylglucosamine 2-epimerase/N-acetylmannosamine kinase (GNE) (human) (UniProt Q9Y223); test: SPR; BIAcore 3000, CM5 chip, 25°C; GNE immobilised by amine coupling (up to 600 RU); Tris buffer (20 mM Tris pH 7.5, 100-300 mM NaCl, 0.1 mM DTT, 2 mM CaCl2); 30 µl/min; 1:1 Langmuir model; both purified
T1 sequence: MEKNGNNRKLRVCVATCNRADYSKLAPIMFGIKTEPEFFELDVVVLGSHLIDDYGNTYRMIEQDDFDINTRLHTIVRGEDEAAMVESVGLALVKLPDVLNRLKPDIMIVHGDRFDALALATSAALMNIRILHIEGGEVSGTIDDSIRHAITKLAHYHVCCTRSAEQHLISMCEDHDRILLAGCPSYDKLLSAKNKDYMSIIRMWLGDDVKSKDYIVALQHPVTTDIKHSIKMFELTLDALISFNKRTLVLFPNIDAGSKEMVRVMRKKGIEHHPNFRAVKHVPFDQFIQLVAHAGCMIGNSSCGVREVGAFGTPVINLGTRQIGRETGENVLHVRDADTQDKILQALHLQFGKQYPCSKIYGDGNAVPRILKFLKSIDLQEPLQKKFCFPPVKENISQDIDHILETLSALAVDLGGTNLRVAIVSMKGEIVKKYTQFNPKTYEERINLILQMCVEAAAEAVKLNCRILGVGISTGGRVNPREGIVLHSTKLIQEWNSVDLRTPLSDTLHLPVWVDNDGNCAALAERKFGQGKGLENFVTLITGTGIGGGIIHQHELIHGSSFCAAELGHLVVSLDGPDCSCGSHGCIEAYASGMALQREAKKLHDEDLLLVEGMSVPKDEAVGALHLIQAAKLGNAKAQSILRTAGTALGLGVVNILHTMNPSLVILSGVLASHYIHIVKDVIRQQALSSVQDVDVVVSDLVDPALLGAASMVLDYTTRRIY

[2] = target: T1, His-tagged wild type UDP-N-acetylglucosamine 2-epimerase/N-acetylmannosamine kinase (GNE) (human); test: SPR; BIAcore; GNE immobilised; LDH-B 1-27 µM injected in different buffers (Tris HEPES, PBS or NaPi); both purified

| binding [1] | binding [2] | Substance |
| --- | --- | --- |
| no binding (tested: 1–10 µM) | – | bovine serum albumin (BSA) (from UniProt P02769 25-607) |
| – | no binding (tested: 1–27 µM) | recombinant chicken LDH-B protein (from UniProt P00337 1-333) (enzyme) |
